# From the supplement of paper PMC8728848
# Some of the results follow.
# How the values were obtained:
# Assay in all cases: glycan array binding signal (z-score within array); higher = stronger binding
# Settings in all cases: glycan notation: IUPAC condensed, linker removed
# [1] = target: GlcNAc(a1-4)Gal(b1-3)GlcNAc
# Procedure, shortened: (§1)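 Negative Z-scores can be read as non-binding. The Z-score is calculated within each array and then averaged across arrays of one protein sequence at different concentrations or buffers and across linkers. Arrays, 3228 in all, were curated from the Consortium for Functional Glycomics database and kept only where the protein sequence was available.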
# [2] = target: GlcNAc(a1-4)Gal(b1-4)GalNAc
# Procedure, shortened: as §1
# [3] = target: GlcNAc(a1-4)Gal(b1-4)GlcNAc
# Procedure, shortened: as §1
# [4] = target: GlcNAc(a1-4)Gal(b1-4)GlcNAc(b1-3)Gal(b1-4)Glc
# Procedure, shortened: as §1
# [5] = target: GlcNAc(a1-4)Gal(b1-4)GlcNAc(b1-3)Gal(b1-4)GlcNAc
# Procedure, shortened: as §1
# [6] = target: GlcNAc(a1-4)Gal(b1-4)GlcNAc(b1-3)Gal(b1-4)GlcNAc(b1-3)Gal(b1-4)GlcNAc
# Procedure, shortened: as §1
# [7] = target: GlcNAc(a1-4)Gal(b1-4)GlcNAc(b1-3)Gal(b1-4)[Fuc(a1-3)]GlcNAc(b1-3)Gal(b1-4)[Fuc(a1-3)]GlcNAc
# Procedure, shortened: as §1
# [8] = target: GlcNAc(a1-6)Gal(b1-4)GlcNAc
# Procedure, shortened: as §1
# [9] = target: GlcNAc(b1-2)Gal(b1-3)GalNAc
# Procedure, shortened: as §1
# [10] = target: GlcNAc(b1-2)Man(a1-3)[GlcNAc(b1-2)Man(a1-6)]Man(b1-4)GlcNAc(b1-4)GlcNAc
# Procedure, shortened: as §1
# [11] = target: GlcNAc(b1-2)Man(a1-3)[GlcNAc(b1-2)Man(a1-6)]Man(b1-4)GlcNAc(b1-4)[Fuc(a1-6)]GlcNAc
# Procedure, shortened: as §1
# [12] = target: GlcNAc(b1-2)Man(a1-3)[GlcNAc(b1-4)][GlcNAc(b1-2)Man(a1-6)]Man(b1-4)GlcNAc(b1-4)GlcNAc
# Procedure, shortened: as §1
# [13] = target: GlcNAc(b1-2)Man(a1-3)[GlcNAc(b1-4)][GlcNAc(b1-2)Man(a1-6)]Man(b1-4)GlcNAc(b1-4)[Fuc(a1-6)]GlcNAc
# Procedure, shortened: as §1
# [14] = target: GlcNAc(b1-2)[GlcNAc(b1-4)]Man(a1-3)[GlcNAc(b1-2)Man(a1-6)]Man(b1-4)GlcNAc(b1-4)GlcNAc
# Procedure, shortened: as §1
# [15] = target: GlcNAc(b1-2)[GlcNAc(b1-4)]Man(a1-3)[GlcNAc(b1-4)][GlcNAc(b1-2)Man(a1-6)]Man(b1-4)GlcNAc(b1-4)GlcNAc
# Procedure, shortened: as §1
# [16] = target: GlcNAc(b1-2)[GlcNAc(b1-4)]Man(a1-3)[GlcNAc(b1-4)][GlcNAc(b1-2)[GlcNAc(b1-6)]Man(a1-6)]Man(b1-4)GlcNAc(b1-4)GlcNAc
# Procedure, shortened: as §1
# [17] = target: GlcNAc(b1-2)[GlcNAc(b1-4)]Man(a1-3)[GlcNAc(b1-4)][GlcNAc(b1-2)[GlcNAc(b1-6)]Man(a1-6)]Man(b1-4)GlcNAc(b1-4)[Fuc(a1-6)]GlcNAc
# Procedure, shortened: as §1
# [18] = target: GlcNAc(b1-2)[GlcNAc(b1-6)]Man(a1-6)[GlcNAc(b1-2)Man(a1-3)]Man(b1-4)GlcNAc(b1-4)GlcNAc
# Procedure, shortened: as §1
# [19] = target: GlcNAc(b1-2)[GlcNAc(b1-6)]Man(a1-6)[GlcNAc(b1-2)Man(a1-3)]Man(b1-4)GlcNAc(b1-4)[Fuc(a1-6)]GlcNAc
# Procedure, shortened: as §1
# [20] = target: GlcNAc(b1-2)[GlcNAc(b1-6)]Man(a1-6)[GlcNAc(b1-4)][GlcNAc(b1-2)Man(a1-3)]Man(b1-4)GlcNAc(b1-4)GlcNAc
# Procedure, shortened: as §1
# GlcNAc(b1-3)Fuc = target: GlcNAc(b1-3)Fuc
# Procedure, shortened: as §1
# GlcNAc(b1-3)Gal = target: GlcNAc(b1-3)Gal
# Procedure, shortened: as §1
# [21] = target: GlcNAc(b1-3)Gal(b1-3)GalNAc
# Procedure, shortened: as §1
# GlcNAc(b1-3)Gal(b1-4)Glc = target: GlcNAc(b1-3)Gal(b1-4)Glc
# Procedure, shortened: as §1
# [22] = target: GlcNAc(b1-3)Gal(b1-4)GlcNAc
# Procedure, shortened: as §1
# [23] = target: GlcNAc(b1-3)Gal(b1-4)GlcNAc(b1-2)Man(a1-3)[GlcNAc(b1-3)Gal(b1-4)GlcNAc(b1-2)Man(a1-6)]Man(b1-4)GlcNAc(b1-4)GlcNAc
# Procedure, shortened: as §1
# [24] = target: GlcNAc(b1-3)Gal(b1-4)GlcNAc(b1-2)Man(a1-3)[GlcNAc(b1-3)Gal(b1-4)GlcNAc(b1-2)Man(a1-6)]Man(b1-4)GlcNAc(b1-4)[Fuc(a1-6)]GlcNAc
# Procedure, shortened: as §1
# [25] = target: GlcNAc(b1-3)Gal(b1-4)GlcNAc(b1-2)[GlcNAc(b1-3)Gal(b1-4)GlcNAc(b1-6)]Man(a1-6)[GlcNAc(b1-3)Gal(b1-4)GlcNAc(b1-2)Man(a1-3)]Man(b1-4)GlcNAc(b1-4)GlcNAc
# Procedure, shortened: as §1
# [26] = target: GlcNAc(b1-3)Gal(b1-4)GlcNAc(b1-3)Gal(b1-4)GlcNAc
# Procedure, shortened: as §1
# [27] = target: GlcNAc(b1-3)Gal(b1-4)GlcNAc(b1-3)Gal(b1-4)GlcNAc(b1-2)Man(a1-3)[GlcNAc(b1-3)Gal(b1-4)GlcNAc(b1-3)Gal(b1-4)GlcNAc(b1-2)Man(a1-6)]Man(b1-4)GlcNAc(b1-4)GlcNAc
# Procedure, shortened: as §1
# [28] = target: GlcNAc(b1-3)Gal(b1-4)GlcNAc(b1-3)Gal(b1-4)GlcNAc(b1-2)Man(a1-3)[GlcNAc(b1-3)Gal(b1-4)GlcNAc(b1-3)Gal(b1-4)GlcNAc(b1-2)Man(a1-6)]Man(b1-4)GlcNAc(b1-4)[Fuc(a1-6)]GlcNAc
# Procedure, shortened: as §1
# [29] = target: GlcNAc(b1-3)Gal(b1-4)GlcNAc(b1-3)Gal(b1-4)GlcNAc(b1-2)[GlcNAc(b1-3)Gal(b1-4)GlcNAc(b1-3)Gal(b1-4)GlcNAc(b1-6)]Man(a1-6)[GlcNAc(b1-3)Gal(b1-4)GlcNAc(b1-3)Gal(b1-4)GlcNAc(b1-2)Man(a1-3)]Man(b1-4)GlcNAc(b1-4)[Fuc(a1-6)]GlcNAc
# Procedure, shortened: as §1
# [30] = target: GlcNAc(b1-3)Gal(b1-4)GlcNAc(b1-3)Gal(b1-4)GlcNAc(b1-3)Gal(b1-4)GlcNAc(b1-2)Man(a1-3)[GlcNAc(b1-3)Gal(b1-4)GlcNAc(b1-3)Gal(b1-4)GlcNAc(b1-3)Gal(b1-4)GlcNAc(b1-2)Man(a1-6)]Man(b1-4)GlcNAc(b1-4)GlcNAc
# Procedure, shortened: as §1
# [31] = target: GlcNAc(b1-3)Gal(b1-4)GlcNAc(b1-3)Gal(b1-4)GlcNAc(b1-3)Gal(b1-4)GlcNAc(b1-2)Man(a1-3)[GlcNAc(b1-3)Gal(b1-4)GlcNAc(b1-3)Gal(b1-4)GlcNAc(b1-3)Gal(b1-4)GlcNAc(b1-2)Man(a1-6)]Man(b1-4)GlcNAc(b1-4)[Fuc(a1-6)]GlcNAc
# Procedure, shortened: as §1
# [32] = target: GlcNAc(b1-3)Gal(b1-4)GlcNAc(b1-3)Gal(b1-4)GlcNAc(b1-3)Gal(b1-4)GlcNAc(b1-2)[GlcNAc(b1-3)Gal(b1-4)GlcNAc(b1-3)Gal(b1-4)GlcNAc(b1-3)Gal(b1-4)GlcNAc(b1-6)]Man(a1-6)[GlcNAc(b1-3)Gal(b1-4)GlcNAc(b1-3)Gal(b1-4)GlcNAc(b1-3)Gal(b1-4)GlcNAc(b1-2)Man(a1-3)]Man(b1-4)GlcNAc(b1-4)[Fuc(a1-6)]GlcNAc
# Procedure, shortened: as §1
# [33] = target: GlcNAc(b1-3)Gal(b1-4)GlcNAc(b1-3)Gal(b1-4)GlcNAc(b1-3)Gal(b1-4)GlcNAc(b1-3)Gal(b1-4)GlcNAc(b1-2)Man(a1-3)[GlcNAc(b1-3)Gal(b1-4)GlcNAc(b1-3)Gal(b1-4)GlcNAc(b1-3)Gal(b1-4)GlcNAc(b1-3)Gal(b1-4)GlcNAc(b1-2)Man(a1-6)]Man(b1-4)GlcNAc(b1-4)GlcNAc
# Procedure, shortened: as §1
# [34] = target: GlcNAc(b1-3)Gal(b1-4)GlcNAc(b1-3)Gal(b1-4)GlcNAc(b1-3)Gal(b1-4)GlcNAc(b1-3)Gal(b1-4)GlcNAc(b1-2)Man(a1-3)[GlcNAc(b1-3)Gal(b1-4)GlcNAc(b1-3)Gal(b1-4)GlcNAc(b1-3)Gal(b1-4)GlcNAc(b1-3)Gal(b1-4)GlcNAc(b1-2)Man(a1-6)]Man(b1-4)GlcNAc(b1-4)[Fuc(a1-6)]GlcNAc
# Procedure, shortened: as §1
# [35] = target: GlcNAc(b1-3)Gal(b1-4)GlcNAc(b1-3)Gal(b1-4)GlcNAc(b1-3)Gal(b1-4)GlcNAc(b1-3)Gal(b1-4)GlcNAc(b1-2)[GlcNAc(b1-3)Gal(b1-4)GlcNAc(b1-3)Gal(b1-4)GlcNAc(b1-3)Gal(b1-4)GlcNAc(b1-3)Gal(b1-4)GlcNAc(b1-6)]Man(a1-6)[GlcNAc(b1-3)Gal(b1-4)GlcNAc(b1-3)Gal(b1-4)GlcNAc(b1-3)Gal(b1-4)GlcNAc(b1-3)Gal(b1-4)GlcNAc(b1-2)Man(a1-3)]Man(b1-4)GlcNAc(b1-4)[Fuc(a1-6)]GlcNAc
# Procedure, shortened: as §1
binder,measurement,setting,value
PX14404-bvu-534-26-534 (Bacteroides vulgatus) (protein) EDPRGKLTPENFFSTQDELNMSIYALYQKVNLSQVYTNMQLPQWQGDDITTNPGSNKQPAAEMDKFAAANNNKGVKDAWNMHYAIVKAANLIIQGASKTPTTQDEINIALGQAKFWRAYAYFTLVRLWGPLPMNLDNVNDDYTKPLSPVEEVYGHIVQDLTEAEAVLPTGYSGSPRFLNGVNVYVTRQAAKSTLAAVYMAMAGWPMNKTEYYAKAAEKAKEVIEGVNRGEYEYKLDKDYKDVYAMSNNYNNETVLGINYSPFVDWAQDSELTSCNQFESLGGWGDAWGEIRFWKEFPDGPRKDATYDPKIRLKDGTLVDWWELKEDGTPVVPEHHPMFSIFSVNWDPASKVNTSAPYDYTKPASQNMCNDHRHRIIRYSEVLLWYAEAKARTGQTDELAFKCLNDVRERAGLEPLTGLSADDLAEAAYKEHGWEVAGYWVALVTRRADQFRMNRLKDTFKERAENTAVEVADGILVKESVEYTNRTWSDNLMYLPYPDMDSQKNPNLVR,glycan array binding signal (z-score),[1],0.178
same,glycan array binding signal (z-score),[2],0.254
same,glycan array binding signal (z-score),[3],0.553
same,glycan array binding signal (z-score),[4],-0.987
same,glycan array binding signal (z-score),[5],-0.584
same,glycan array binding signal (z-score),[6],-0.821
same,glycan array binding signal (z-score),[7],-0.135
same,glycan array binding signal (z-score),[8],-1.04
same,glycan array binding signal (z-score),[9],-0.047
same,glycan array binding signal (z-score),[10],-0.142
same,glycan array binding signal (z-score),[11],1.46
same,glycan array binding signal (z-score),[12],-0.52
same,glycan array binding signal (z-score),[13],-0.813
same,glycan array binding signal (z-score),[14],-1.12
same,glycan array binding signal (z-score),[15],-0.525
same,glycan array binding signal (z-score),[16],-0.336
same,glycan array binding signal (z-score),[17],-1.45
same,glycan array binding signal (z-score),[18],0.165
same,glycan array binding signal (z-score),[19],-0.822
same,glycan array binding signal (z-score),[20],-1.21
same,glycan array binding signal (z-score),GlcNAc(b1-3)Fuc,-0.292
same,glycan array binding signal (z-score),GlcNAc(b1-3)Gal,-0.05
same,glycan array binding signal (z-score),[21],-0.231
same,glycan array binding signal (z-score),GlcNAc(b1-3)Gal(b1-4)Glc,-0.311
same,glycan array binding signal (z-score),[22],-1.11
same,glycan array binding signal (z-score),[23],-0.394
same,glycan array binding signal (z-score),[24],-0.325
same,glycan array binding signal (z-score),[25],0.022
same,glycan array binding signal (z-score),[26],-0.272
same,glycan array binding signal (z-score),[27],-0.143
same,glycan array binding signal (z-score),[28],0.213
same,glycan array binding signal (z-score),[29],0.377
same,glycan array binding signal (z-score),[30],-0.471
same,glycan array binding signal (z-score),[31],-0.165
same,glycan array binding signal (z-score),[32],0.433
same,glycan array binding signal (z-score),[33],-1.33
same,glycan array binding signal (z-score),[34],0.42
same,glycan array binding signal (z-score),[35],-0.469

# Exported with tabs: part of the list above.
binder	measurement	setting	value
PX14404-bvu-534-26-534 (Bacteroides vulgatus) (protein) EDPRGKLTPENFFSTQDELNMSIYALYQKVNLSQVYTNMQLPQWQGDDITTNPGSNKQPAAEMDKFAAANNNKGVKDAWNMHYAIVKAANLIIQGASKTPTTQDEINIALGQAKFWRAYAYFTLVRLWGPLPMNLDNVNDDYTKPLSPVEEVYGHIVQDLTEAEAVLPTGYSGSPRFLNGVNVYVTRQAAKSTLAAVYMAMAGWPMNKTEYYAKAAEKAKEVIEGVNRGEYEYKLDKDYKDVYAMSNNYNNETVLGINYSPFVDWAQDSELTSCNQFESLGGWGDAWGEIRFWKEFPDGPRKDATYDPKIRLKDGTLVDWWELKEDGTPVVPEHHPMFSIFSVNWDPASKVNTSAPYDYTKPASQNMCNDHRHRIIRYSEVLLWYAEAKARTGQTDELAFKCLNDVRERAGLEPLTGLSADDLAEAAYKEHGWEVAGYWVALVTRRADQFRMNRLKDTFKERAENTAVEVADGILVKESVEYTNRTWSDNLMYLPYPDMDSQKNPNLVR	glycan array binding signal (z-score)	[26]	-0.272
same	glycan array binding signal (z-score)	[27]	-0.143
